Laboratory results taken from patent US20030061635A1, “Pollen-specific novel calmodulin-binding protein, NPG1 (No Pollen Germination1), promoter, coding sequences and methods for using the same” (priority 2001, published 2003).
These are yes or no findings as the source states them, for the method shown. Some binding calls cover weakened binding; strength is not graded here.

Target: Arabidopsis thaliana CaM isoform 2 (Arabidopsis thaliana) (UniProt P0DH97)
Assay: HRP-CaM (Arabidopsis CaM2) blot overlay

B1: Arabidopsis KCBP 1.5C (bacterially expressed carboxyl-terminal region of kinesin-like calmodulin binding protein) (protein, UniProt Q9FHN8 821-1260, looked up)
chain: SDMLLLQNNLKELEELREMKEDIDRKNEQTAAILKMQGAQLAELEILYKEEQVLRKRYYNTIEDMKGKIRVYCRIRPLNEKESSEREKQMLTTVDEFTVEHPWKDDKRKQHIYDRVFDMRASQDDIFEDTKYLVQSAVDGYNVCIFAYGQTGSGKTFTIYGHESNPGLTPRATKELFNILKRDSKRFSFSLKAYMVELYQDTLVDLLLPKSARRLKLEIKKDSKGMVFVENVTTIPISTLEELRMILERGSERRHVSGTNMNEESSRSHLILSVVIESIDLQTQSAARGKLSFVDLAGSERVKKSGSAGCQLKEAQSINKSLSALGDVIGALSSGNQHIPYRNHKLTMLMSDSLGGNAKTLMFVNVSPAESNLDETYNSLLYASRVRTIVNDPSKHISSKEMVRLKKLVAYWKEQAGKKGEEEDLVDIEEDRTRKDEADS
With B1 the binding was “binds”.
